{"source": "patent US8557851B2", "about": "“Combinations of flupirtine and sodium channel inhibiting substances for treating pains” (MEDA Pharma GmbH & Co. KG, priority 2003, dated 2013)", "origin": "cited, not measured here", "test_system": "specific [3H] flunitrazepam", "conditions": "up to a concentration of 10 pmol/l (Nickel et al. 1990b); cited from earlier work", "note": "At least one structure is not confirmed: it was looked up by name or label, or the drawing left a doubt.", "data": [{"molecule": "CCOC(=O)Nc1ccc(NCc2ccc(F)cc2)nc1N", "note": "[flupirtine]", "values": [{"measurement": "Affinity for specific [3H] flunitrazepam", "result": "no affinity"}]}]}
